{"sequences": {"note": "Protein sequences, listed by entry. Tags and fused reporters are not part of them. Lines headed by an entry give the natural chain unless they say otherwise; changes in a name come on top.", "UniProt P11712, whole entry": "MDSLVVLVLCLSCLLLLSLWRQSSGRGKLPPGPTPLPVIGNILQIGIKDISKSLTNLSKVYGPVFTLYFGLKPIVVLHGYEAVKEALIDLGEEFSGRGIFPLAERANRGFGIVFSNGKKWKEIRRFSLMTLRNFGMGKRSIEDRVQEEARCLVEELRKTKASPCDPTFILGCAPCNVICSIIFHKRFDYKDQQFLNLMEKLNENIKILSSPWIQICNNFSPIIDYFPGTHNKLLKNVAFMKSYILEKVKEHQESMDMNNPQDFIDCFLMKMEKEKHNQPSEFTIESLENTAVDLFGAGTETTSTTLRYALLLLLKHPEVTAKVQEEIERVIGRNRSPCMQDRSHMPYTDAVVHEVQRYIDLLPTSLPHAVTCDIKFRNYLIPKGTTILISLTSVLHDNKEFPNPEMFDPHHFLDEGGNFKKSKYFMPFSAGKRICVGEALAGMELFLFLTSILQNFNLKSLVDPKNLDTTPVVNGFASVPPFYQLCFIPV", "UniProt Q12809": "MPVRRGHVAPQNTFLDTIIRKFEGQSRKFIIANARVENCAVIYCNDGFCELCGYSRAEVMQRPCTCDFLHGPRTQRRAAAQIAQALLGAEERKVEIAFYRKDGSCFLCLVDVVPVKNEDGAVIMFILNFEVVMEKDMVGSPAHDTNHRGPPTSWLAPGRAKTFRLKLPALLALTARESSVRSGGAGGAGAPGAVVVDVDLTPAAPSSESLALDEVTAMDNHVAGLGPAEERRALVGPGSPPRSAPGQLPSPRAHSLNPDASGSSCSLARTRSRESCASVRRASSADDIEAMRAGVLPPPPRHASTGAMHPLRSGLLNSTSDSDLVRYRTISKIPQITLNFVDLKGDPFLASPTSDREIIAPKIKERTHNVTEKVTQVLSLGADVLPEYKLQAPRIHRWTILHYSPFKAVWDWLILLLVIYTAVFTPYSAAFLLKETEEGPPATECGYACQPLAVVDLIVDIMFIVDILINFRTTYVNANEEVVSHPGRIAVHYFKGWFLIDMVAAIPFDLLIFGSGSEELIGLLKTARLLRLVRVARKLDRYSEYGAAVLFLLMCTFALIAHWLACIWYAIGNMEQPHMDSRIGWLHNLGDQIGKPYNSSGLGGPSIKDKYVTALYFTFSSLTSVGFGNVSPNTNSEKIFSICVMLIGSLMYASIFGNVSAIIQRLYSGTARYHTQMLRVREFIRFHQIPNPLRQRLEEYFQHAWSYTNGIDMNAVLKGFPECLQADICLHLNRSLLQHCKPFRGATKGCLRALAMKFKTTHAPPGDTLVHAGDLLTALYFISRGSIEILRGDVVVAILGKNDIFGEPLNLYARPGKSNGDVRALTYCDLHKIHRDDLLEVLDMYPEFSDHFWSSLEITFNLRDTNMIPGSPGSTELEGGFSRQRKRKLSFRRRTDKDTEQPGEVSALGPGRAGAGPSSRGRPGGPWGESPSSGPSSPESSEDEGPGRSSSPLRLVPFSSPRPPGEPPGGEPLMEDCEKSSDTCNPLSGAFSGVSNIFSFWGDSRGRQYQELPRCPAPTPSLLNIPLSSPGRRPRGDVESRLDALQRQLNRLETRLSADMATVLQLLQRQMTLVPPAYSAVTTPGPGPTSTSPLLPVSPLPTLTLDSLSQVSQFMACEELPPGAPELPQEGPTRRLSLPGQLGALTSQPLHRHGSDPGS"}, "source": "ChEMBL document CHEMBL5046322", "about": "“Discovery of SHR2415, a Novel Pyrrole-Fused Urea Scaffold ERK1/2 Inhibitor” (ACS Med Chem Lett, 2022)", "key": {"Cytochrome P450 2C9": {"biological_target": "Cytochrome P450 2C9 (Homo sapiens, UniProt P11712)", "experiment": "Inhibition of CYP2C9 in human liver microsomes"}, "[1]": {"biological_target": "Voltage-gated inwardly rectifying potassium channel KCNH2 (Homo sapiens, UniProt Q12809)"}}}
{"smiles": "Cc1cnc(Nc2ccnn2C)nc1-c1cc2n(c1)C(=O)N([C@H](CO)c1cccc(Cl)c1)C2", "values": [{"measurement": "IC50", "setting": "Cytochrome P450 2C9", "value": 790, "unit": "nM"}, {"measurement": "IC50", "setting": "[1]", "value": 14, "unit": "nM"}]}
